Publication PMC11206880, “The RNA Helicase Ded1 from Yeast Is Associated with the Signal Recognition Particle and Is Regulated by SRP21” (Molecules, 2024)
Results are given in words; binding and its absence hold for the method and conditions named. In cells and extracts the contact can be indirect. These calls come from enrichment with a bait or labelling near it, and not all partners need be listed.

By UniProt entry, the sequences of proteins in these tests, tags left out.
UniProt P06634: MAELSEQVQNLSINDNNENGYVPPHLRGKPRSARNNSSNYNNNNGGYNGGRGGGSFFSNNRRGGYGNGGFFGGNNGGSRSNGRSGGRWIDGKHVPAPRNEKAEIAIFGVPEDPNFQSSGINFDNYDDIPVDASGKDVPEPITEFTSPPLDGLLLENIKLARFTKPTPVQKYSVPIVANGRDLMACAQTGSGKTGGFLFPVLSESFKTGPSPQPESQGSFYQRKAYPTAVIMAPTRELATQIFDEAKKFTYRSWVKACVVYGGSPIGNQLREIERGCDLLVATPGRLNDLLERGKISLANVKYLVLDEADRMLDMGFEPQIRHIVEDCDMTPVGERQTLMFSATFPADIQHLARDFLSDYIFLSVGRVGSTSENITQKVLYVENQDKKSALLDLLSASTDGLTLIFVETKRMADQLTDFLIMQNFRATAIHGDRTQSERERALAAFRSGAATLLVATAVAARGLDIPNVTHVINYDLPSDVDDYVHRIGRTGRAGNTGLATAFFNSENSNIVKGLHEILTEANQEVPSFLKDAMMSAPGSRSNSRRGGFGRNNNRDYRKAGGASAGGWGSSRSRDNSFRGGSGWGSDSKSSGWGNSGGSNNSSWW

B1: His-tagged SRP14 (natural protein, yeast (S. cerevisiae), UniProt P38985 1-146, looked up)
chain: MANTGCLSPGAFLSKVPEFFQTANEKHITVRLTAKRLIEHDPVEGNLEFDSTNHPDYDVSKKASEISVSSRSDREYPLLIRMSYGSHDKKTKCSTVVKASELDQFWQEYSSVFKGGMQNLIKKKKKKSKNGTISKTGKKNKVAKKN
notes: SRP14 of yeast, subcloned into the NdeI and XhoI sites of pET22b; source: E. coli Rosetta (DE3), purified (Ni-NTA)
B2: SRP21 (protein, UniProt P32342 1-167)
chain: MSVKPIDNYITNSVRLFEVNPSQTLFSISYKPPTQKTDTKVSFRTHNSHLSLNYKFTTNKSKDVSRLLSALGPRGVSITPGKIEKIAQSKKKNNKIKESSKKIKGKSIQDIVGLATLIVNTDVEKSDPAAKKTATEPKQKANAVQNNNGNSAASKKKKNKNKGKKKR
B3: His-tagged Sec65 (natural protein, yeast (S. cerevisiae), UniProt P29478 1-273, looked up)
chain: MPRLEEIDDFNDIDDLDMELAELDPSLRTPIAPKITPKVVRSQDQENPAFLPGTNNNSNSNNNSSNEKEQLSFINPKTGKVERSEAISKKDLEEVKRFQVLYPCYFDINRSHKEGRRVPKELAVENPLAKTMADAVRELGILCIFEGEKCHPQDFGNPGRIRVLFKENGQLIGAATKFKGGKRQLMKAVGEYMKRHPTTIESLREIPYGPDFDNIEFKKIPRVKGFKMNEIVPLHSPFLMGHPMTKSVYETPKITAAEKSFKPPKNKYKVVRR
notes: Sec65 of yeast, cloned into the XhoI and BamHI sites of pET19b; source: E. coli Rosetta (DE3), purified (Ni-NTA)
B4: SRP68 (protein, UniProt P38687 1-599)
chain: MVAYSPIIATYGNRAEQFLETDSDFAKYHAKLNKKLQHLRSRCHLVTKDTKKYSSKNKYGEINSEDYDNKTKLIGVLILLHAERDLALAETLKLRARQRGKLKKSEEKVLSTRLKKACKTADKLVNVTQNEQQWITRAQYLAFAKLVHSEYLINGKRFKRKDNAKISNNLALVFAALEHLKNLSLLAEEVVDNIVNKYQYSLKQYAGNLITTPEINNFIVERVQSDENKDDELVKLLLDNGFNMKKITTSTEDQKVTTNINWRSFNAKIIDAEVAQFLEQGLSIHPTQITQYTQRLSKLEKALDRHEFFIANHDDQDDIDEMVENSSENNQIILAYIKYNILLTSISRERDLFTHLWNQWLKLNTSLPSKLTKYKEMERIVKNLTKYLSDIMELPGVYSDDELLSQLDLCKLYFQLFLNTGCLSVLYQSKGRYMEALALYVDAYRRLENKLSEIESLDEILLPANLLSLNSVRSLQKRIENGGNSVITLAEYEKRNHGGSLGKYDLTVIEKLDSKKILPTDIQLKNLFPLKPKMLPIPSKPTLFDLAFNYITYDKQEPSASQVKDSVTETESISQTPISNEQTEGEPKKKRGFLGLFGR

These binders were tested against Ded1 (Saccharomyces cerevisiae (endogenous in yeast extract)) (UniProt P06634) (assay: affinity purification with mass spectrometry; Ded1-specific IgG pull-down of polysome sucrose-gradient fractions of yeast; nano-LC ESI MS/MS).

binding, binds:
B1, B2, B3, B4
